The source of these data is patent US7829560B2, “1,4-disubstituted naphthalenes as inhibitors of P38 MAP kinase” (Arqule, Inc., priority 2004, dated 2010).

The structures appear in SMILES notation.

The test system of data set [1] is TNFα release from THP-1 cells. Nature of the data set: Inhibition of TNFα release from LPS-stimulated THP-1 cells, ELISA. The class given is cell-based. The note with it: Homo sapiens, THP-1, THP-1 cells, read-out: [CELL] THP-1, IC50, TNF ALPHA, ELISA. An excerpt: Compounds of the invention are screened for the ability to inhibit TNFα and IL-1β release from THP-1 cells stimulated with lipopolysaccharide (LPS) in vitro. The ability of compounds to inhibit TNFα and IL-1β release in this in vitro assay is correlated with the inhibition of p38 activity and TNFα and IL-1β expression in vivo, and is therefore an indicator of potential in vivo therapeutic activity (Lee J. C. et al, Ann. N.Y. Acad. Sci. 696: 149-170, 1993 and Nature, 372: 739-746, 1994).
Materials: THP-1 cells from ATCC (TIB202) are maintained at 37° C., 5% CO2 in RPMI 1640 media (available from MediaTech, Herndon, Va.) containing 4.5 g/L glucose, supplemented with 10% fetal bovine serum, 1% penicillin/streptomycin and 50 μM β-mercaptoethanol.
Methods: Test compounds are initially dissolved in RPMI media with 1% DMSO (v/v). Compounds are then serially diluted in RPMI media for all subsequent dilutions. The assay is performed under sterile conditions. THP-1 cells at a culture density of 6-8×10^5 cells/ml are collected and resuspended in the RPMI media at 10^6 cells/ml containing 10% fetal bovine serum, no serum or 1% human serum albumin (HSA). […] TNFα and IL-1β levels are measured using ELISA kits from Biosource (Catalog no. KHC3012 for TNFα; KAC1192 for IL-1β). A SpectraMAX 250 is used as the plate reader. […]
For orientation: ELISA stands for enzyme-linked immunosorbent assay.

By IC50 is commonly meant the concentration at which inhibition is half-maximal. The melting point is the temperature, or range, at which the solid turns liquid. `CCOC(=O)N1CCN(c2nccc(Oc3ccc(NC(=O)c4cc(F)cc(N5CCCCC5)c4)c4ccccc34)n2)CC1` [Compound B376, Ethyl 4-[4-({4-[(3-fluoro-5-piperidin-1-ylbenzoyl)amino]-1-naphthyl}oxy)pyrimidin-2-yl]piperazine-1-carboxylate] yielded a melting point of 105 to 106 °C. In data set [1], the IC50 was > 1000 nM.
